According to paper PMC8722291:
Results are given in words; binding and its absence hold for the method and conditions named. In cells and extracts the contact can be indirect. Some entries that bind do so weakly or less than the wild type.

By UniProt entry, the sequences of proteins in these tests, tags left out.
UniProt Q05397: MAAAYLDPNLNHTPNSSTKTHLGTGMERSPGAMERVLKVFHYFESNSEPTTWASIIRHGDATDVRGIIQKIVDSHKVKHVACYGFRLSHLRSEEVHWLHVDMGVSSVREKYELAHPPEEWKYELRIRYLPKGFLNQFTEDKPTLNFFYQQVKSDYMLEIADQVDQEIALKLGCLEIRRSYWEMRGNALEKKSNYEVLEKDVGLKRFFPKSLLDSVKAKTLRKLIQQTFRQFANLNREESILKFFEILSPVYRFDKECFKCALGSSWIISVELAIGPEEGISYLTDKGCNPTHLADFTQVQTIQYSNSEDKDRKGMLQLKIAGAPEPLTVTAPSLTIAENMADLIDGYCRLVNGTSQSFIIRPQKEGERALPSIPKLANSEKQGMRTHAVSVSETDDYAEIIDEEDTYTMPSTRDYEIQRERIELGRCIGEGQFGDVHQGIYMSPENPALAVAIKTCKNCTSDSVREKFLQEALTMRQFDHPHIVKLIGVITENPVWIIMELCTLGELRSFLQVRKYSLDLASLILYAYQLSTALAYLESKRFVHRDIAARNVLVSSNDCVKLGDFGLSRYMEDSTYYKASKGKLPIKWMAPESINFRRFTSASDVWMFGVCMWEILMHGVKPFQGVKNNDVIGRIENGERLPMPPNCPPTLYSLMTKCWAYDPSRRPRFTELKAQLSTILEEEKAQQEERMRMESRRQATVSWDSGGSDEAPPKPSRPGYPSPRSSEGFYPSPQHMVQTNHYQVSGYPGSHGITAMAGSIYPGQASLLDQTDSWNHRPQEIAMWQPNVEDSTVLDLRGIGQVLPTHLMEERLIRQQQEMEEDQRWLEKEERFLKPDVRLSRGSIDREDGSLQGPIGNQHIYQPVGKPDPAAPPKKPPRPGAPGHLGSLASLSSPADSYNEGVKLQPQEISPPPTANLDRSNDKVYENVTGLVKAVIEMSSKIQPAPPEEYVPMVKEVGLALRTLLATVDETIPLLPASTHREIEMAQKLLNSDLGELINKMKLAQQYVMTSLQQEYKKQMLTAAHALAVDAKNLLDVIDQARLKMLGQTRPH
UniProt Q13526: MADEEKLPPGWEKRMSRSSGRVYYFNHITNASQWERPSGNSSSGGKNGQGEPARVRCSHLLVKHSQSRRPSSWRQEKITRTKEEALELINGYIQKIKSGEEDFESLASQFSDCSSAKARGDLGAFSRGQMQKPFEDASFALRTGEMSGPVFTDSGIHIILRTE

Key:
[1] = target: Focal adhesion kinase 1 (human (endogenous in SK-BR-3)) (UniProt Q05397); assay: co-IP; JIMT-1 cells (Fig. S3H); no further details shown
[2] = target: Focal adhesion kinase 1 (human (endogenous in SK-BR-3)) (UniProt Q05397); assay: co-IP; SK-BR-3 cells lysed in co-IP buffer; antibody (anti-GRB7, anti-FAK or anti-Pin1) overnight at 4 °C, protein A/G beads 2 h at 4 °C, Western blot for the other protein; cells with circCDYL2 overexpression or silencing compared with controls
[3] = target: peptidyl-prolyl cis/trans isomerase Pin1 (human (endogenous in SK-BR-3)) (UniProt Q13526); assay: as above
[4] = target: Growth Factor Receptor Bound Protein 7 (human (endogenous in SK-BR-3)) (UniProt Q14451); assay: co-IP; JIMT-1 cells (Fig. S3H); no further details shown
[5] = target: Growth Factor Receptor Bound Protein 7 (human (endogenous in SK-BR-3)) (UniProt Q14451); assay: co-IP; SK-BR-3 cells lysed in co-IP buffer; antibody (anti-GRB7, anti-FAK or anti-Pin1) overnight at 4 °C, protein A/G beads 2 h at 4 °C, Western blot for the other protein; cells with circCDYL2 overexpression or silencing compared with controls

binding [1] | binding [2] | binding [3] | binding [4] | binding [5] | Substance
binds | binds | binds |  |  | Growth Factor Receptor Bound Protein 7 (from UniProt Q14451 1-532)
 |  |  | binds | binds | Focal adhesion kinase 1 (from UniProt Q05397 1-1052)
 |  |  |  | binds | peptidyl-prolyl cis/trans isomerase Pin1 (from UniProt Q13526 1-163)
